Laboratory results reported in PubChem BioAssay AID1347423 (Functional Genomics Laboratory (NCATS/FGL), 2020).
Out of some 52,000 sequences screened, about 210 (0.4%) were called active.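 The calls were made as follows: active = gene whose silencing raises cell survival under the drug, median off-target-corrected z-score across its silencing RNAs 2 or more; inactive = the rest.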 This is one part of the list.

Test: Resistance to Poly (ADP-Ribose) Polymerase inhibitor: Gene Identification via Genome-wide siRNA Screen
Conditions: mouse BRCA2 R2336H ES cells, olaparib, CellTiter-Glo viability; hits give high values
In short: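 Mouse BRCA2 R2336H ES cells were reverse-transfected with siRNA (20 nM final), treated at 48 h with 500 nM olaparib, and read by CellTiter-Glo after 72 h. Scores: MAD-based z per siRNA, median per gene, seed off-target correction.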

Sequence | z-score
GCAUGAUUAGGUUUCAGCATT against 2310057M21Rik | inactive: 1.13
GGAAGGAGAAGGGUAGCAATT against BC034054 | inactive: 0.0863
GCCGGACAGGGAAACUUAATT against 4933402P03Rik | inactive: -1.06
GCAUUCGUUCGGCACGUGUTT against Bcl2l14 | inactive: 2.18
CCUAGCACUAGCCUCCUUATT against Tbx2 | inactive: 0.0769
GGCUUUUGUUUCUUAUGUCTT against E430029F06 | inactive: -0.0477
GGAAAUCGAGCAUGUCUUCTT against Stk32c | inactive: -1.98
GCUGAUAAACCACUUGUGATT against Olfr1287 | inactive: 0.139
CGGGUGAGUGGAAAAACCATT against Gm574 | inactive: 0.588
GGAGAUGAUGCUCUUCCUGTT against Cflar | inactive: -0.436
GGCCCUUGUAAGAGUCCUUTT against Olfr381 | inactive: 0.252
AUGUGACUGGCUUUACAUUTT against 4933405I11Rik | inactive: -0.855
GGAACUGUGAGACUUUUAGTT against Rabgap1 | inactive: 1.94
CGUAGGUUCCUCUUACAUGTT against 4930562C03Rik | inactive: -0.867
CCACUCCUGUUGAUAAAAATT against Pex7 | inactive: 0.307
CCAGAUAAGCCUCAUCAAUTT against Scn5a | inactive: 1.65
GGGAGAAUUACCAAGAUCUTT against Elac1 | inactive: 2.5
GCCACUUGUUAAUAAAGUGTT against 9130011J15Rik | inactive: -0.513
GGCCAUAUUUGUGACUGUGTT against Hao1 | inactive: 2.26
GACAUACAAUCUCCUACAUTT against Olfr478 | inactive: -0.58
GGAAAUCUACAUCAUGGCUTT against AI661311 | inactive: 0.949
GGCUUUCAUGUGCCGUUUUTT against Gstm5 | inactive: 0.483

Sequence | z-score
GGAUGAUGCUUCUUGAAAATT against Sfrp4 | inactive: -0.175
GGAAAUGACAGGAAAGAUUTT against Zfp35 | inactive: 0.364
GGGAGCCAAAGUGAGAUUUTT against 4933429I20Rik | inactive: -0.144
GGGACUGGUCGUUUAGGAUTT against Tmie | inactive: 1.75
GCACUAAGUGGUCCAAUUATT against Gm1382 | inactive: 0.169
GGCAGUUGUUAAAAUCUGCTT against 2210409M21Rik | inactive: -0.487
GGCUAUAUCAAUGAAUUUGTT against Polr3b | inactive: 0.129
GGGUAUAGAAUGAUUAUGGTT against BC025446 | inactive: 0.195
GGUAAACACUACCCUAACATT against Cpeb3 | inactive: -0.00872
GGCCUCCAAGAUUGUAGGUTT against Prtn3 | inactive: 1.44
GGAGCACCAAGAAUUUUUUTT against Bcl2l10 | inactive: 1.29
GGGAAAGAAUGGUGUGGAATT against Dlx4 | inactive: -1.16
GGACUUCAAGGAUGCCUACTT against B3galt5 | inactive: -1.53
GCUUCCUCGGUCAAAUAAATT against Cetn1 | inactive: -0.259
GGCUGGAGAAGUAAUGAUATT against Sp100 | inactive: 0.289
GUGUAUGUUCACCAAGCUCTT against Klk16 | inactive: -3.03
GGGAAUGUGACUACUCCAUTT against Tln2 | inactive: 0.944
GGCAAUGAAGGAAACCAAATT against Mpp1 | inactive: -1.7
GGCAGCAAACCUUUGCUAUTT against 2700050P07Rik | inactive: 0.39
GGGCAUCCGGCUUUCAGAATT against Chchd3 | inactive: -0.661
GCCAAAGCUUAAAAAGAAGTT against Gemin5 | inactive: 0.42
GGAUAUUAAAUUCUCAUCCTT against Pus1 | inactive: 1.14

A few values from above.
For z-score, GUGUAUGUUCACCAAGCUCTT against Klk16 is entered as inactive: -3.03
For z-score, GGACUUCAAGGAUGCCUACTT against B3galt5 is entered as inactive: -1.53
For z-score, AUGUGACUGGCUUUACAUUTT against 4933405I11Rik is entered as inactive: -0.855
For z-score, GGGAAAGAAUGGUGUGGAATT against Dlx4 is entered as inactive: -1.16
For z-score, GCCACUUGUUAAUAAAGUGTT against 9130011J15Rik is entered as inactive: -0.513

More records follow:

Sequence | z-score
GGUUGUUCCUACAUGUCUUTT against Irf3 | inactive: -0.073
CCAACAAGUUGCAUGCCUUTT against Mbl1 | inactive: 0.153
GGACAGAUGAAGCUGCAUUTT against S100a4 | inactive: -0.776
GGAGUCCUACGUCAAAGAATT against F630022B06Rik | inactive: 1.27
GCGUGAACACCUGAGGAUUTT against Rchy1 | inactive: -0.252
CCUAAUUACUACCACUACATT against Csnk | inactive: 1.02
CCCUCAGAACCAUUGAGAATT against Max | inactive: -1.95
GCGGUCCACUCCUGUUUGATT against Ypel1 | inactive: -0.36
GGGUUCCUACGAAUUCUACTT against 9230105K17Rik | inactive: -0.307
GGCACUCUCUCAGAAUUUGTT against Rtn4ip1 | inactive: 1.34
GGCCCAUAGGUUUCAAAUATT against Ccl22 | inactive: -0.99
CCGCUAAGUUGGUAGACUCTT against Grp | inactive: 0.182
GCCAAAUUUUGGGAUGUAATT against 2810047L02Rik | inactive: -1.02
GGCCCUGUGCACUAAAGUGTT against Bax | inactive: 0.388
GCCUAAAUUCACAUGGCAGTT against 2510005D08Rik | inactive: 0.93
CCAUUCCUACAGCAUGCGUTT against Slc27a1 | inactive: 0.369
GGCCUGACUUUUUGUCUUATT against Klhl15 | inactive: -0.795
GGACGAUGGACCCUAAAAGTT against 4931409K22Rik | inactive: 0.515
GACCUUGAAGAAGCCAAUCTT against C330016H24Rik | inactive: -0.452
GAGUUCCAGUUUAUCCCUUTT against Klra1 | inactive: 0.52
GGGCAAAUGUUCUCAAAAATT against Dlst | inactive: 0.745
GCAGUUAUCCGUAUUUAAATT against Ctnnbl1 | inactive: 0.634
